# Experimental data: PubChem BioAssay AID743454 (Peter MacCallum Cancer Centre, 2014)
# Test: 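Knock-downs lowering viability or raising caspase 3/7 activity in vorinostat-treated resistant cells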 (primary screen)
# Cells: human HCT116-VR colon cancer cells, selected for vorinostat resistance
# Knock-down reagent: siRNA pool against human genes, 40 nM siRNA pool
# Timing: vorinostat for 24 h, read-out about 72 h after transfection
# Challenge: vorinostat at 2.5 µM final
# Detection: 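Cell viability by CellTiter-Fluor and caspase 3/7 activity by luminescence, each scaled to mock wells per plate, duplicates averaged, then robust z-scored over all plates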
# Reading the numbers: viability robust z-score: higher = more viable cells than screen typical; caspase robust z-score: higher = more caspase 3/7 activity than screen typical
# Rule for the call: 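Hits are knock-downs in viability class RV1/RV2 or caspase class CA1/CA2, excluding ones that killed cells in the no-drug cell-count arm; hits then retested with single siRNAs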
# Shown is one part, drawn at random, of about 18,000 deposited reagents. 450 of them (2.5%) were called active. 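Single biological run; no consistent viability z cut-off exists, so the class columns, not z-scores, define the calls.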 Reagents against one gene are numbered here.
viability hit class,caspase hit class,viability robust z-score,caspase robust z-score,Call,gene,pool no.
no change,CA2 (caspase activation),-1.6,12.1,active,RNF128 (ring finger protein 128),1
RV2 (reduced viability),no change,-3.21,3.16,active,USP45 (ubiquitin specific peptidase 45),1
no change,no change,0.78,-0.82,inactive,NKTR (natural killer cell triggering receptor),1
no change,no change,0.5,-0.7,inactive,PIWIL1 (piwi like RNA-mediated gene silencing 1),1
no change,no change,-0.74,-0.83,inactive,ZNF713 (zinc finger protein 713),1
no change,no change,0.47,0.16,inactive,ZSCAN1 (zinc finger and SCAN domain containing 1),1
no change,no change,0.24,0.4,inactive,CHIT1 (chitinase 1),1
no change,no change,0.37,-0.1,inactive,IMPA1 (inositol monophosphatase 1),1
no change,no change,0.5,-0.04,inactive,C10orf67 (chromosome 10 open reading frame 67),1
no change,no change,-1.52,-0.36,inactive,PRR34 (PRR34 long non-coding RNA),1
no change,no change,-0.2,-0.52,inactive,TGS1 (trimethylguanosine synthase 1),1
no change,no change,-1.9,3.15,inactive,EPHA1 (EPH receptor A1),1
no change,no change,-1.56,1.78,inactive,TAS2R43 (taste 2 receptor member 43),1
no change,no change,0.77,0.36,inactive,"CLTRN (collectrin, amino acid transport regulator)",1
no change,no change,1.26,-0.89,inactive,GCM1 (GCM transcription factor 1),1
no change,no change,-0.13,-0.02,inactive,"ADPRM (ADP-ribose/CDP-alcohol diphosphatase, manganese dependent)",1
no change,no change,-0.46,-0.85,inactive,SACK1C (scaffolding CK1 anchoring protein C),1
no change,no change,1.41,0,inactive,TAF6L (TATA-box binding protein associated factor 6 like),1
no change,no change,0.66,-0.74,inactive,SEC63 (SEC63 protein translocation regulator),1
no change,no change,0.67,4.36,inactive,CYTIP (cytohesin 1 interacting protein),1
no change,CA1 (caspase activation),-1.7,6.62,active,MIIP (migration and invasion inhibitory protein),1
no change,no change,-0.56,0.07,inactive,PANX3 (pannexin 3),1
no change,no change,-0.25,-0.86,inactive,TRMT112 (tRNA methyltransferase activator subunit 11-2),1
no change,no change,-0.59,-0.98,inactive,ANXA2R (annexin A2 receptor),1
no change,no change,-0.03,-0.44,inactive,IRS2 (insulin receptor substrate 2),1
no change,no change,0.35,-0.52,inactive,NET1 (neuroepithelial cell transforming 1),1
no change,no change,-0.39,-1.12,inactive,NUDCD1 (NudC domain containing 1),1
no change,no change,-0.94,-0.46,inactive,KCNJ3 (potassium inwardly rectifying channel subfamily J member 3),1
no change,no change,0.97,1.27,inactive,PPP2R5C (protein phosphatase 2 regulatory subunit B'gamma),1
no change,no change,-0.18,-0.22,inactive,C1orf105 (chromosome 1 open reading frame 105),1
no change,no change,0.12,-1.04,inactive,MARCKSL1 (MARCKS like 1),1
no change,no change,-0.38,0.94,inactive,SLFN5 (schlafen family member 5),1
no change,no change,1.15,0.53,inactive,MYO5A (myosin VA),1
no change,no change,-0.18,-0.14,inactive,CHIA (chitinase acidic),1
no change,no change,0,-0.92,inactive,GPR160 (G protein-coupled receptor 160),1
no change,no change,0.02,1.24,inactive,FUT4 (fucosyltransferase 4),1
no change,no change,0.88,0.33,inactive,ZNF311 (zinc finger protein 311),1
no change,no change,0.18,-0.57,inactive,DHX33 (DEAH-box helicase 33),1
no change,no change,-0.48,0.2,inactive,SYNGR2 (synaptogyrin 2),1
no change,CA1 (caspase activation),-1.72,6.03,active,PDX1 (pancreatic and duodenal homeobox 1),1
no change,no change,0.28,1.04,inactive,ANKHD1 (ankyrin repeat and KH domain containing 1),1
no change,no change,-0.8,-0.89,inactive,TMEM171 (transmembrane protein 171),1
no change,no change,-4.27,3.46,inactive,RRM2 (ribonucleotide reductase regulatory subunit M2),1
no change,no change,-0.28,-0.57,inactive,RRM2 (ribonucleotide reductase regulatory subunit M2),2
no change,no change,0.72,-0.92,inactive,ALKAL2 (ALK and LTK ligand 2),1
no change,no change,-0.28,1.51,inactive,PLXNA3 (plexin A3),1
no change,no change,0.02,-1.12,inactive,SMC1B (structural maintenance of chromosomes 1B),1
no change,no change,-0.69,-1.54,inactive,GHR (growth hormone receptor),1
no change,no change,0.42,5.05,inactive,ZFYVE26 (zinc finger FYVE-type containing 26),1
no change,no change,-0.52,0.31,inactive,AGBL1 (AGBL carboxypeptidase 1),1
no change,no change,-0.34,-0.38,inactive,CARHSP1 (calcium regulated heat stable protein 1),1
no change,no change,0.12,-0.57,inactive,RHOG (ras homolog family member G),1
no change,no change,0.2,0.08,inactive,SPOCK3,1
no change,no change,0.09,-0.8,inactive,JAKMIP1 (janus kinase and microtubule interacting protein 1),1
no change,no change,1.19,-0.36,inactive,P4HA1 (prolyl 4-hydroxylase subunit alpha 1),1
no change,no change,-0.05,-1.31,inactive,CHCT1 (CHD1 helical C-terminal domain containing 1),1
no change,no change,0.02,0.18,inactive,CELA2B (chymotrypsin like elastase 2B),1
no change,no change,-0.11,-0.32,inactive,HOMER3 (homer scaffold protein 3),1
no change,no change,1.48,0.86,inactive,C1D (C1D nuclear receptor corepressor),1
no change,no change,0.74,-1.04,inactive,USP19 (ubiquitin specific peptidase 19),1
no change,no change,0.71,1.04,inactive,RHOD (ras homolog family member D),1
no change,no change,-0.82,0.46,inactive,IRX3 (iroquois homeobox 3),1
no change,no change,1.13,1.27,inactive,ZNF266 (zinc finger protein 266),1
no change,no change,-2.38,0.02,inactive,RPS6KA2 (ribosomal protein S6 kinase A2),1
no change,no change,-0.11,0.8,inactive,ZSCAN5A (zinc finger and SCAN domain containing 5A),1
no change,no change,-1.28,1.65,inactive,CORO7 (coronin 7),1
no change,no change,0.52,0.06,inactive,CYB5B (cytochrome b5 type B),1
no change,no change,1.7,-0.68,inactive,PGM1 (phosphoglucomutase 1),1
no change,no change,0.64,0.44,inactive,MUL1 (mitochondrial E3 ubiquitin protein ligase 1),1
no change,no change,-0.18,-0.69,inactive,FAM222B (family with sequence similarity 222 member B),1
no change,no change,0.08,1.64,inactive,TK1 (thymidine kinase 1),1
no change,no change,-1.27,-0.03,inactive,KIF18B (kinesin family member 18B),1
no change,no change,-1.3,-0.24,inactive,CCR2 (C-C motif chemokine receptor 2),1

Looked up above.
For “caspase robust z-score”, FUT4 (fucosyltransferase 4) shows 1.24
TMEM171 (transmembrane protein 171), Call = inactive
Result of CCR2 (C-C motif chemokine receptor 2) under “caspase hit class”: no change
Result of ALKAL2 (ALK and LTK ligand 2) in “caspase robust z-score”: -0.92
EPHA1 (EPH receptor A1), caspase robust z-score = 3.15
Under “caspase robust z-score”, RRM2 (ribonucleotide reductase regulatory subunit M2) #1 reads 3.46
